# Laboratory results: PubChem BioAssay AID743454 (Peter MacCallum Cancer Centre, 2014)
# Assay: 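Genes whose loss kills vorinostat-resistant colon cancer cells under vorinostat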 (primary screen)
# Cells: human HCT116-VR colon cancer cells, selected for vorinostat resistance
# Reagents: siRNA pool against human genes, 40 nM siRNA pool
# Timing: vorinostat for 24 h, read-out about 72 h after transfection
# Treatment: vorinostat at 2.5 µM final
# Read-out: 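Cell viability by CellTiter-Fluor and caspase 3/7 activity by luminescence, each scaled to mock wells per plate, duplicates averaged, then robust z-scored over all plates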
# Direction: viability robust z-score: higher = more viable cells than screen typical; caspase robust z-score: higher = more caspase 3/7 activity than screen typical
# Hit rule: 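Hits are knock-downs in viability class RV1/RV2 or caspase class CA1/CA2, excluding ones that killed cells in the no-drug cell-count arm; hits then retested with single siRNAs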
# The whole screen tested about 18,000 reagents; this is an unselected part. 450 of them (2.5%) count as active. 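Single biological run; no consistent viability z cut-off exists, so the class columns, not z-scores, define the calls.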 A number with no mark means an inactive call.
viability hit class,caspase hit class,viability robust z-score,caspase robust z-score,Gene,PubChem SID
no change,no change,0.46,-0.23,APOBEC3G (GeneID 60489),SID134317311
no change,no change,-1.41,0.95,HAS1 (GeneID 3036),SID134314391
no change,no change,1.36,0.34,KRT6B (GeneID 3854),SID152155872
no change,no change,-1.54,-0.82,MMAA (GeneID 166785),SID152150620
no change,no change,-2.27,2.05,GRB10 (GeneID 2887),SID135622927
no change,no change,0.42,0.43,OR5AP2 (GeneID 338675),SID134329822
no change,no change,-0.21,-0.36,SLC17A9 (GeneID 63910),SID135623401
no change,no change,0.43,-0.63,ADAT2 (GeneID 134637),SID152147536
no change,no change,1.6,0.84,ARHGDIG (GeneID 398),SID152149004
no change,no change,-0.14,-1.31,LHFPL7 (GeneID 255349),SID135625252
no change,no change,0.32,-0.54,FAM91A1 (GeneID 157769),SID152153895
no change,no change,-0.14,-1.16,SEMA3F (GeneID 6405),SID135623366
no change,no change,-0.52,-0.8,TMEM106A (GeneID 113277),SID134320381
no change,no change,0.66,-0.63,FAM131B (GeneID 9715),SID135624085
no change,no change,0.32,-0.6,SCML4 (GeneID 256380),SID135624203
no change,no change,-1.99,2.53,NUP214 (GeneID 8021),SID134316287
no change,no change,-1.81,3.05,POTED (GeneID 317754),SID152149368
no change,no change,-1.29,1.31,ZBBX (GeneID 79740),SID135622736
no change,no change,-1.53,1.93,RBX1 (GeneID 9978),SID134310266
no change,no change,0.76,-0.43,RFX3 (GeneID 5991),SID134316082
no change,no change,-0.73,1.82,CHEK1 (GeneID 1111),SID152148697
no change,no change,0.86,-0.18,TXLNGY (GeneID 246126),SID135622847
no change,no change,0.6,-0.08,TXLNGY (GeneID 246126),SID152152723
no change,no change,-0.06,0.78,UNKL (GeneID 64718),SID152147345
no change,no change,0.75,-0.66,MMP2 (GeneID 4313),SID135621115
no change,no change,1.34,-0.06,ZMYM2 (GeneID 7750),SID134324936
no change,no change,0.12,-0.35,AGK (GeneID 55750),SID56479172
no change,no change,-2,-0.32,ODC1 (GeneID 4953),SID134311943
no change,no change,0.38,-0.39,ITGB5 (GeneID 3693),SID135620782
no change,no change,0.42,1.92,NMT1 (GeneID 4836),SID134310391
no change,no change,-0.38,0.02,H3C11 (GeneID 8354),SID134315789
no change,no change,-0.57,1.42,TESC (GeneID 54997),SID135624077
no change,no change,0.39,0.97,CUL9 (GeneID 23113),SID152153545
no change,no change,-0.68,-0.66,TRDN (GeneID 10345),SID152148430
no change,no change,-0.2,-0.51,CLECL1 (GeneID 160365),SID134320610
no change,no change,1.84,-0.36,ZFP2 (GeneID 80108),SID134318687
no change,no change,2.35,-0.5,MAP3K2 (GeneID 10746),SID135620706
no change,no change,-0.19,0.28,TPD52 (GeneID 7163),SID152148168
no change,no change,0.58,-0.5,ARMCX3 (GeneID 51566),SID134317555
no change,no change,1.12,-0.81,SMPDL3A (GeneID 10924),SID152155424
no change,no change,-0.13,0.18,RNF34 (GeneID 80196),SID134312195
no change,no change,1.26,0.52,ACAA2 (GeneID 10449),SID134313627
no change,no change,0.59,-0.4,IKZF1 (GeneID 10320),SID152155165
no change,no change,-0.87,-1.14,UBA7 (GeneID 7318),SID134323525
no change,no change,0.18,0.26,SMURF1 (GeneID 57154),SID135621339
no change,no change,-1.29,2.49,NCOR2 (GeneID 9612),SID152148391
no change,no change,-1.06,0.45,ZNF488 (GeneID 118738),SID134320290
no change,no change,2.22,-0.45,SLC7A8 (GeneID 23428),SID135621420
no change,no change,-0.36,0.42,LOXL3 (GeneID 84695),SID134312953
no change,no change,-1.8,2.86,RASSF4 (GeneID 83937),SID134321516
no change,no change,-1.66,-1.03,TRPC3 (GeneID 7222),SID134311833
no change,no change,1.18,-0.06,GRB7 (GeneID 2886),SID135622373
no change,no change,-0.76,0.34,SEMA4G (GeneID 57715),SID135623689
no change,no change,1.15,0.08,GNG11 (GeneID 2791),SID152152392
no change,no change,1.13,-0.4,C7orf33 (GeneID 202865),SID134320273
no change,no change,1.11,-0.36,TDRKH (GeneID 11022),SID135623836
no change,no change,0.25,-0.34,MYCBP (GeneID 26292),SID152150123

Entries listed so far whose gene name begins with F or f (2):
viability hit class,caspase hit class,viability robust z-score,caspase robust z-score,Gene,PubChem SID
no change,no change,0.32,-0.54,FAM91A1 (GeneID 157769),SID152153895
no change,no change,0.66,-0.63,FAM131B (GeneID 9715),SID135624085
